Laboratory results published in US20050002923A1 (published 2005).

System: UvrABC with Δβh UvrB (Bca) UvrB deletion Gln97-Asp112 replaced by Gly (Bacillus caldotenax)
Test: enzyme reaction in vitro
Settings: internal fluorescein adduct at n (position 12) of the 26-mer [strand 1 position 12 (fluorescein-adducted T, opposite A)]; no incision; 42 C 1 h; purified recombinant protein; protein details: tag-free, purified via intein-CBD fusions; label: 5'-32P on 26-mer; letters built from the parent sequence and the stated change

## TAGATTTAGTTTGACCATTAGATACA / AAATGTATCTAATGGTCAAACTAAATCTACTCGTT [HS1F-M13mp19(+)]
  activity on this sequence: not active

A negative result means that nothing was seen under these conditions.
